# In the supplement of paper PMC10849652:
# Chains of the proteins cited; added tags and fusions are not shown. Lines headed by an entry give the natural chain unless they say otherwise; changes in a name come on top.
# UniProt Q96BU1: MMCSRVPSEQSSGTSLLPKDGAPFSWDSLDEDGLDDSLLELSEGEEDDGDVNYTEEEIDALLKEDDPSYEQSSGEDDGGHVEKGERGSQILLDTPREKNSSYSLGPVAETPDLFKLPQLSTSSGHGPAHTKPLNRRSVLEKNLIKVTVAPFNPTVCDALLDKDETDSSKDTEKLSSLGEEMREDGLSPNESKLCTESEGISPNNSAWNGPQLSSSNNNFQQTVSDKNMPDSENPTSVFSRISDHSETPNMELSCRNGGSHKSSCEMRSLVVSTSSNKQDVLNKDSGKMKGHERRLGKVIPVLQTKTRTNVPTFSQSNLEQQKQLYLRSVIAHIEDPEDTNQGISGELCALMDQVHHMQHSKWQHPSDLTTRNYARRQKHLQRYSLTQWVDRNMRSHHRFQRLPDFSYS
# UniProt Q5VUM1: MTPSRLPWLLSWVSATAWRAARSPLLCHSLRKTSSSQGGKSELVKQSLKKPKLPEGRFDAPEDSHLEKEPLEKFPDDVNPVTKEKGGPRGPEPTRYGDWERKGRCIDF
# UniProt O75298: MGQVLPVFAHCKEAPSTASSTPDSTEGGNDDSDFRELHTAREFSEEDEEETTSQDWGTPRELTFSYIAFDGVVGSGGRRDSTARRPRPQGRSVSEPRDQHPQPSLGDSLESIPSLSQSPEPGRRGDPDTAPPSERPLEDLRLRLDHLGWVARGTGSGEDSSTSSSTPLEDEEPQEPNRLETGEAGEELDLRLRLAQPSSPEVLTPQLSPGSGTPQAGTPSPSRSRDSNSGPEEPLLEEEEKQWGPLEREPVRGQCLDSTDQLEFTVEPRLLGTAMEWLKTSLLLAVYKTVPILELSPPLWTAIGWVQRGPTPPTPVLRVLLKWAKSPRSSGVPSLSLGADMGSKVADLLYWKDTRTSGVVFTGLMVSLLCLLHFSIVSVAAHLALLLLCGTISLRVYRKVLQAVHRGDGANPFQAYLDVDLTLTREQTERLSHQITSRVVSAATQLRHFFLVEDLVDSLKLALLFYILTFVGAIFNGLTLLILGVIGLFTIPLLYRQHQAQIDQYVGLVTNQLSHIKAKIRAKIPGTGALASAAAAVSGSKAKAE
# UniProt P53992: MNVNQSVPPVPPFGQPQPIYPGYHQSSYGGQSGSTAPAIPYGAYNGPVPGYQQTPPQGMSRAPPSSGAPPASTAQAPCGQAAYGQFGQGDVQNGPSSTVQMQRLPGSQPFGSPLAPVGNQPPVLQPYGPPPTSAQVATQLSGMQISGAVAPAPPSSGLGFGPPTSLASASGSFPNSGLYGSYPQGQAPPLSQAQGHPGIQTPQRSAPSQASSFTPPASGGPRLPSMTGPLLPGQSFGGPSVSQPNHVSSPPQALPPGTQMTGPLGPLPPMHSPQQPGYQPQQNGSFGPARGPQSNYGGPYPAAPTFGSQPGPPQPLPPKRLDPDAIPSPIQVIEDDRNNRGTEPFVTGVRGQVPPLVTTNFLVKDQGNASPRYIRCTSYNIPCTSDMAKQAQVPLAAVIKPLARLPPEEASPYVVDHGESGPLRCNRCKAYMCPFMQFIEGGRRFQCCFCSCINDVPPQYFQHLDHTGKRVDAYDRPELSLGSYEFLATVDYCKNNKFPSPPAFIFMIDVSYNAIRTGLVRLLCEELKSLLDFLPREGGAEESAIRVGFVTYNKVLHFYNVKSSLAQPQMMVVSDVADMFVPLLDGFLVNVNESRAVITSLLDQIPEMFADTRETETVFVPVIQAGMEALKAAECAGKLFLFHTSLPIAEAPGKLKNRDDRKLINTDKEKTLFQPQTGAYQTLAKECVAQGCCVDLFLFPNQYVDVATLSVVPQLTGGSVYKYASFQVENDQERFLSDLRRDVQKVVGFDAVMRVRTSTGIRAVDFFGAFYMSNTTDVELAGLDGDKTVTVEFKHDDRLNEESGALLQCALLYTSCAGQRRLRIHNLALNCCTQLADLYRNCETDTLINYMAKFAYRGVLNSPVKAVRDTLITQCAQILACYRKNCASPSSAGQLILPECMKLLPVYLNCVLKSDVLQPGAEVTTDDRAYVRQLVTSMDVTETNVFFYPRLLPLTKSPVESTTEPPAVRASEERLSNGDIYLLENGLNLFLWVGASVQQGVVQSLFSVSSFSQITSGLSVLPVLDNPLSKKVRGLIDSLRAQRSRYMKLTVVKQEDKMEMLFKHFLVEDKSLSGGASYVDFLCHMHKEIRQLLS
# UniProt Q99584: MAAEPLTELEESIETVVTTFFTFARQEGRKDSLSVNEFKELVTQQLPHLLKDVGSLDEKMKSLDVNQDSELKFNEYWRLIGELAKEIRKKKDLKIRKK
# UniProt Q9HB40: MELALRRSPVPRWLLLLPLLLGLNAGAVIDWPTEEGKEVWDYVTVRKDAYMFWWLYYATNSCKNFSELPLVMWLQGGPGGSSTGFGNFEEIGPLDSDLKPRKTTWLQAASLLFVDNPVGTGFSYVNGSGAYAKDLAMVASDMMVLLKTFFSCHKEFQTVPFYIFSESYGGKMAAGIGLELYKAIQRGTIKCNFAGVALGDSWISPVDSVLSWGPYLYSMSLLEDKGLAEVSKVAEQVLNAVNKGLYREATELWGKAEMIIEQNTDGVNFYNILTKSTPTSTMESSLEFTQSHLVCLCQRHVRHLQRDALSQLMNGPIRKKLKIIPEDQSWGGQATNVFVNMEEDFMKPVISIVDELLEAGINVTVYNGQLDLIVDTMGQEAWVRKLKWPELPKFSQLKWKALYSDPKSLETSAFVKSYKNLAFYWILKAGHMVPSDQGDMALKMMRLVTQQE
# UniProt Q9NRP4: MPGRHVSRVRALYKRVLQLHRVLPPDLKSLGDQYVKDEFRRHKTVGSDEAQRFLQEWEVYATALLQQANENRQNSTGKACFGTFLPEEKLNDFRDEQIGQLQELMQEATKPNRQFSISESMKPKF
# UniProt O95197: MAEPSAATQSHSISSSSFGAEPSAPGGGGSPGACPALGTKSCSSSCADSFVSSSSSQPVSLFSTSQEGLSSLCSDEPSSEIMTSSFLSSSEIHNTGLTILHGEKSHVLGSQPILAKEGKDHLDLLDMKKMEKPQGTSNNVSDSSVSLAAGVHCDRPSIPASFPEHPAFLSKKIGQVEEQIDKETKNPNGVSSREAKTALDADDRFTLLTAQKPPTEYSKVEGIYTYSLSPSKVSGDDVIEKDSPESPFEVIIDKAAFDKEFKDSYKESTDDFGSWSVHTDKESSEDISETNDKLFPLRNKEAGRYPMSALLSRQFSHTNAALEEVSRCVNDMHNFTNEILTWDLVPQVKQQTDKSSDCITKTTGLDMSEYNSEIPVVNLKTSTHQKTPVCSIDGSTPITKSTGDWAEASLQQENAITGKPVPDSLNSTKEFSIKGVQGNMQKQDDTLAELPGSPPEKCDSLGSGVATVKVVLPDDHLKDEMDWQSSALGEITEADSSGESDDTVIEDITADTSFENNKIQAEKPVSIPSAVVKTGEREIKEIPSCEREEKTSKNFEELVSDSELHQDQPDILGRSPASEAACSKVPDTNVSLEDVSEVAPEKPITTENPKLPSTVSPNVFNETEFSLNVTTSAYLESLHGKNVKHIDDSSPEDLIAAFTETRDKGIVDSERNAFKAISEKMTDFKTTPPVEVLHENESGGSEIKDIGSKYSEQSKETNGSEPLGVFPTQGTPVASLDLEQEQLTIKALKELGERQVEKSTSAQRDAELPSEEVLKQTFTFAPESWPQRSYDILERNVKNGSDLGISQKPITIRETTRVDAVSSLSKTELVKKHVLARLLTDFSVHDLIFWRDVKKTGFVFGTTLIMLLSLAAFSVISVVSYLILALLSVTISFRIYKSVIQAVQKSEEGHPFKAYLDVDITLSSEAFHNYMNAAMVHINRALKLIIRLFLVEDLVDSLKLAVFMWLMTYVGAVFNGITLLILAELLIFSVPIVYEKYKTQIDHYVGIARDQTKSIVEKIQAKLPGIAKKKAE
# UniProt Q15424: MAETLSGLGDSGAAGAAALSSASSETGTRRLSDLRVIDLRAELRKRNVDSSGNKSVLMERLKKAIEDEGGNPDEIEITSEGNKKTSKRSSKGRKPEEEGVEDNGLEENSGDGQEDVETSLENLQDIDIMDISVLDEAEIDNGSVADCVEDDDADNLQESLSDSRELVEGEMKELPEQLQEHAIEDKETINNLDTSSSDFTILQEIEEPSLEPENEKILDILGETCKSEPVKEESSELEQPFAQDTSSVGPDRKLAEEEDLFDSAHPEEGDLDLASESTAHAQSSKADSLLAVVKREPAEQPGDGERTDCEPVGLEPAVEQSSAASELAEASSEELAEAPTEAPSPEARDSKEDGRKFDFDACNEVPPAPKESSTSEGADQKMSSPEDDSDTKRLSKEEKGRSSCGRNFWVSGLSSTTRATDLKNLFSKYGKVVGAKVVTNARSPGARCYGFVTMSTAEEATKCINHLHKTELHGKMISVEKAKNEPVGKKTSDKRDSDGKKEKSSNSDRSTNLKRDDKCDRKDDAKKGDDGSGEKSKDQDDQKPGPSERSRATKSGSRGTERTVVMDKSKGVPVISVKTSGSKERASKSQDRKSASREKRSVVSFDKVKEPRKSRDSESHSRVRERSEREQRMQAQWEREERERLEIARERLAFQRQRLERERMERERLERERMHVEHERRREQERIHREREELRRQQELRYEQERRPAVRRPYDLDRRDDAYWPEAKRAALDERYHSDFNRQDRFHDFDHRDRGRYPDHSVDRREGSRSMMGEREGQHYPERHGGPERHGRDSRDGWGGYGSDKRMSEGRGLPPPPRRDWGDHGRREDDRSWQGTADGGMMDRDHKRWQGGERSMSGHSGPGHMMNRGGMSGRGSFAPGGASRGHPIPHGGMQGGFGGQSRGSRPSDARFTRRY
# UniProt O00422: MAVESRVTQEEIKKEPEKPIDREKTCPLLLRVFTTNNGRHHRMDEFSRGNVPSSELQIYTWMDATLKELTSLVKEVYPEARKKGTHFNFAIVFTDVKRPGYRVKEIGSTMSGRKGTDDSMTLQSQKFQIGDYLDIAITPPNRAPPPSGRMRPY
# UniProt Q9Y3A4: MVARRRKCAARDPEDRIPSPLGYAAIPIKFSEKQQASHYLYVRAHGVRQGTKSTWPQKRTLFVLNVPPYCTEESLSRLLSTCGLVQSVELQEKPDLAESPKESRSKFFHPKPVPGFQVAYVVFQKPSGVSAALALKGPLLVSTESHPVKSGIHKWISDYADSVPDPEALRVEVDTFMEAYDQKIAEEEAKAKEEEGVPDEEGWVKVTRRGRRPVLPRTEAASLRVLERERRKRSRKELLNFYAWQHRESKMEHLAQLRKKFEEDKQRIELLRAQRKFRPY
# UniProt O75880: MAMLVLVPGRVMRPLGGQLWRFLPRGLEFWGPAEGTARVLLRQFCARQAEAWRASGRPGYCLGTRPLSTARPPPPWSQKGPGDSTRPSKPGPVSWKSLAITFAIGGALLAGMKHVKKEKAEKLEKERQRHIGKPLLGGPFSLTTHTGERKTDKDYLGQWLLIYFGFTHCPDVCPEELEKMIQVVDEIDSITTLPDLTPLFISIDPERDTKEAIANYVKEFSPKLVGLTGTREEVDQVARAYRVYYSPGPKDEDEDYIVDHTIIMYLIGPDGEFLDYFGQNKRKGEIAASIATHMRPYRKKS
# UniProt Q8WTV0: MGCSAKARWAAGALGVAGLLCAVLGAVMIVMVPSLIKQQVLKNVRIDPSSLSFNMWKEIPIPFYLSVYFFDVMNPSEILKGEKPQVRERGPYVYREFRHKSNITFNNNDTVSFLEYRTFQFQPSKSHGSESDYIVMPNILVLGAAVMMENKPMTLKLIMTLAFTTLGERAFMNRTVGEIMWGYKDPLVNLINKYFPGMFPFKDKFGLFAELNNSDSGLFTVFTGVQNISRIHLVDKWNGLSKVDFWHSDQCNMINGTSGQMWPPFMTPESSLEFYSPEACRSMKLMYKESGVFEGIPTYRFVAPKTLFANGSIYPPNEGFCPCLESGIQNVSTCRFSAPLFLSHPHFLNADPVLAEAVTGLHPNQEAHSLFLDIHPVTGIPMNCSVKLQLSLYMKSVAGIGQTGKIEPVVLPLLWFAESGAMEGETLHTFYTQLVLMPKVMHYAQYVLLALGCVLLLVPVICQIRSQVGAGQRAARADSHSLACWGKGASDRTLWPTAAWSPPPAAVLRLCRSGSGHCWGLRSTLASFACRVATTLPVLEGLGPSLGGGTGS
# UniProt Q8NBX0: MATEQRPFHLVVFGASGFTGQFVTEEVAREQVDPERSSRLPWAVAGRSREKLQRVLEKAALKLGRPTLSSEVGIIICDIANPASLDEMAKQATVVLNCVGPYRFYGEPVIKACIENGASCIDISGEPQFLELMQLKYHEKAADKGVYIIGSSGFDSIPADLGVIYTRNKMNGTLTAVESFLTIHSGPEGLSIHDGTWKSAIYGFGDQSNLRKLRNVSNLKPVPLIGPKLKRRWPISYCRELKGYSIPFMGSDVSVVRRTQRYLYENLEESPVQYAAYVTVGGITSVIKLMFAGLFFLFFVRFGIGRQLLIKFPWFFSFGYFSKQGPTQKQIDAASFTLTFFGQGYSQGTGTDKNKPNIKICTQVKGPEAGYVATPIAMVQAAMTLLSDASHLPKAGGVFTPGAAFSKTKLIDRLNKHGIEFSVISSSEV
# The other results are listed elsewhere or left out.
# Tests used:
# Assay in all cases: log2 fold change, soluble protein after heating vs DMSO (PISA); higher = thermal stabilisation; K562 cells, 10 uM, 30 min; active = over 0.2 and 3.5 SD of the protein, either way, in both replicates (recomputed)
# [1] = compound: COC1=CC=C(C=C1)CN2C=CC3=C2C=C(C=C3)C(=O)NO
# In short: (§1)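 Thermal stability values are relative to control samples and come from duplicates. They are expressed as log2 fold changes. For measurement, K562 cells (2×10^6 cells/mL) received 10 μM compound for 30 min, and aliquots were heated for 3 min over 48°C-58°C, pooled, and extracted at 4°C in PBS with 0.5% NP-40. Soluble protein, the supernatant after 21,000xg for 90 min, was quantified by TMTpro 16plex LC-MS/MS with equalised channel sums.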
# filanesib = compound: CON(C)C(=O)N1N=C(c2cc(F)ccc2F)S[C@@]1(CCCN)c1ccccc1 [filanesib]
# In short: as §1
# zotarolimus = compound: CO[C@H]1C[C@@H]2CC[C@@H](C)[C@@](O)(O2)C(=O)C(=O)N2CCCC[C@H]2C(=O)O[C@H]([C@H](C)C[C@@H]2CC[C@H](n3cnnn3)[C@H](OC)C2)CC(=O)[C@H](C)/C=C(\C)[C@@H](O)[C@@H](OC)C(=O)[C@H](C)C[C@H](C)/C=C/C=C/C=C/1C [zotarolimus]
# In short: as §1
# idasanutlin = compound: COc1cc(C(=O)O)ccc1NC(=O)[C@@H]1N[C@@H](CC(C)(C)C)[C@](C#N)(c2ccc(Cl)cc2F)[C@H]1c1cccc(Cl)c1F [idasanutlin]
# In short: as §1
# alisertib = compound: COc1cc(Nc2ncc3c(n2)-c2ccc(Cl)cc2C(c2c(F)cccc2OC)=NC3)ccc1C(=O)O [alisertib]
# In short: as §1
# [2] = compound: COc1cc2nc(-c3cc(F)ccc3O)nc(N[C@@H]3CNC[C@H]3C(C)(C)O)c2cc1OC
# In short: as §1
# gefitinib = compound: COc1cc2ncnc(Nc3ccc(F)c(Cl)c3)c2cc1OCCCN1CCOCC1 [gefitinib]
# In short: as §1
# [3] = compound: COc1cccc2cc(-c3nc([C@H]4CC[C@H](C(=O)O)CC4)n4ncnc(N)c34)[nH]c12
# In short: as §1
# lapatinib = compound: CS(=O)(=O)CCNCc1ccc(-c2ccc3ncnc(Nc4ccc(OCc5cccc(F)c5)c(Cl)c4)c3c2)o1 [lapatinib]
# In short: as §1
# pictilisib = compound: CS(=O)(=O)N1CCN(Cc2cc3nc(-c4cccc5[nH]ncc45)nc(N4CCOCC4)c3s2)CC1 [pictilisib]
# In short: as §1
Target,log2 fold change [1],log2 fold change (filanesib),log2 fold change (zotarolimus),log2 fold change (idasanutlin),log2 fold change (alisertib),log2 fold change [2],log2 fold change (gefitinib),log2 fold change [3],log2 fold change (lapatinib),log2 fold change (pictilisib)
RSBN1L (UniProt Q6PCB5),inactive: -0.087,inactive: 0.26,inactive: -0.051,inactive: 0.184,inactive: -0.033,inactive: -0.117,inactive: -0.023,inactive: -0.141,inactive: 0.2,inactive: -0.192
SAMHD1 (UniProt Q9Y3Z3),inactive: 0.014,inactive: -0.013,inactive: -0.007,inactive: -0.01,inactive: 0.01,inactive: 0.013,inactive: -0.032,inactive: 0.059,inactive: -0.046,inactive: -0.052
SCAMP4 (UniProt Q969E2),inactive: -0.051,inactive: 0.019,inactive: -0.038,inactive: -0.013,inactive: -0.075,inactive: 0.006,inactive: 0.005,inactive: 0.102,inactive: -0.051,inactive: 0.004
RTN4IP1 (UniProt Q8WWV3),inactive: 0.206,inactive: -0.081,inactive: 0.097,active: 1.17,inactive: -0.22,inactive: -0.013,inactive: 0.125,inactive: 0.256,inactive: 0.003,inactive: -0.003
SEC23B (UniProt Q15437),inactive: 0.048,inactive: -0.045,inactive: -0.012,inactive: -0.007,inactive: 0.04,inactive: 0.029,inactive: 0.007,inactive: -0.007,inactive: -0.032,inactive: 0.007
RTF1 (UniProt Q92541),inactive: -0.001,inactive: -0.046,inactive: 0.007,inactive: -0.021,inactive: 0.021,inactive: 0.056,inactive: 0.08,inactive: 0.004,inactive: 0.005,inactive: 0.033
S100PBP (UniProt Q96BU1),inactive: -0.127,inactive: -0.081,inactive: 0.089,inactive: 0.024,inactive: -0.021,inactive: -0.019,inactive: -0.007,inactive: 0.029,inactive: -0.069,inactive: -0.145
SDHAF4 (UniProt Q5VUM1),inactive: -0.072,inactive: 0.034,inactive: -0.01,inactive: -0.223,inactive: -0.073,inactive: -0.026,inactive: 0.026,inactive: 0.096,inactive: -0.154,
RTN2 (UniProt O75298),inactive: 0.098,inactive: -0.036,inactive: -0.074,inactive: -0.042,inactive: -0.213,inactive: -0.232,inactive: -0.017,inactive: 0.048,inactive: -0.034,
SEC24C (UniProt P53992),inactive: 0.074,inactive: -0.012,inactive: 0.017,inactive: -0.033,inactive: -0.013,inactive: 0.063,inactive: 0.011,inactive: -0.02,inactive: 0.031,inactive: -0.044
S100A13 (UniProt Q99584),inactive: -0.066,inactive: -0.052,inactive: 0.005,inactive: -0.066,inactive: -0.02,inactive: -0.078,inactive: -0.027,inactive: 0.056,inactive: -0.035,inactive: 0.039
SCPEP1 (UniProt Q9HB40),inactive: 0.078,inactive: -0.082,inactive: 0.009,inactive: 0.002,inactive: 0.007,inactive: -0.058,inactive: -0.014,inactive: 0.057,inactive: -0.021,inactive: 0.096
SDHAF3 (UniProt Q9NRP4),inactive: -0.049,inactive: -0.11,inactive: 0.021,inactive: -0.025,inactive: -0.044,inactive: -0.066,inactive: 0.216,inactive: 0.027,inactive: -0.065,inactive: 0.151
SDCBP (UniProt O00560),inactive: -0.022,inactive: -0.154,inactive: 0.1,inactive: 0.101,inactive: -0.04,inactive: -0.152,inactive: -0.043,inactive: -0.022,inactive: 0.005,inactive: -0.05
SCAF11 (UniProt Q99590),inactive: 0.365,inactive: 0.141,inactive: -0.029,inactive: 0.054,inactive: -0.1,inactive: -0.028,inactive: -0.013,inactive: -0.071,inactive: 0.156,inactive: -0.382
RUVBL1 (UniProt Q9Y265),inactive: -0.009,inactive: 0,inactive: -0.034,inactive: -0.034,inactive: -0.086,inactive: 0.033,inactive: 0.005,inactive: 0.033,inactive: -0.033,inactive: 0.047

Target,log2 fold change [1],log2 fold change (filanesib),log2 fold change (zotarolimus),log2 fold change (idasanutlin),log2 fold change (alisertib),log2 fold change [2],log2 fold change (gefitinib),log2 fold change [3],log2 fold change (lapatinib),log2 fold change (pictilisib)
SCG3 (UniProt Q8WXD2),inactive: 0.002,inactive: -0.001,inactive: -0.044,inactive: -0.056,inactive: 0.128,inactive: -0.082,inactive: 0.089,inactive: -0.236,inactive: 0.07,inactive: -0.086
SAMD4A (UniProt Q9UPU9),inactive: -0.132,,,,,,,,,
SACM1L (UniProt Q9NTJ5),inactive: 0.044,inactive: -0.081,inactive: 0.029,inactive: -0.027,inactive: -0.05,inactive: -0.039,inactive: 0.086,inactive: 0.023,inactive: 0.028,inactive: -0.038
SASH1 (UniProt O94885),inactive: -0.059,inactive: -0.074,inactive: -0.04,inactive: -0.05,inactive: 0.009,inactive: -0.161,inactive: 0.015,inactive: -0.015,inactive: -0.013,inactive: 0.073
SCFD1 (UniProt Q8WVM8),inactive: 0.032,inactive: -0.071,inactive: 0.027,inactive: -0.145,inactive: 0.02,inactive: 0.102,inactive: 0.021,inactive: -0.016,inactive: -0.022,inactive: 0.015
RTN3 (UniProt O95197),inactive: -0.02,inactive: 0.014,inactive: 0.001,inactive: 0.051,inactive: 0.025,inactive: -0.037,inactive: 0.013,inactive: 0.065,inactive: -0.039,inactive: 0.052
SAFB isoform 3 (UniProt Q15424),inactive: 0.043,inactive: 0.305,inactive: -0.026,inactive: 0.219,inactive: -0.117,inactive: -0.043,inactive: -0.018,inactive: -0.027,inactive: -0.032,inactive: -0.13
SAP18 isoform 2 (UniProt O00422),inactive: 0.084,inactive: 0.384,inactive: 0.009,inactive: 0.174,inactive: -0.07,inactive: 0.036,inactive: -0.034,inactive: 0,inactive: 0.07,inactive: 0
RTN3 isoform 5 (UniProt O95197),inactive: -0.105,inactive: -0.058,inactive: 0.103,inactive: -0.078,inactive: -0.118,inactive: -0.018,inactive: -0.074,inactive: 0.106,inactive: -0.1,
RSRC1 (UniProt Q96IZ7),inactive: 0.136,inactive: -0.003,inactive: 0.033,inactive: -0.004,inactive: -0.084,inactive: -0.024,inactive: 0.024,inactive: 0.001,inactive: 0.041,inactive: 0.101
RRP7A (UniProt Q9Y3A4),inactive: -0.076,inactive: 0.027,inactive: 0.13,inactive: 0.294,inactive: 0.07,inactive: 0.034,inactive: -0.063,inactive: -0.098,inactive: -0.021,
SCO1 (UniProt O75880),inactive: -0.009,inactive: 0.046,inactive: 0.013,inactive: 0.128,inactive: -0.003,inactive: 0.021,inactive: 0.032,inactive: 0.015,inactive: -0.011,inactive: 0.041
SCARB1 isoform 2 (UniProt Q8WTV0),inactive: 0.054,inactive: -0.099,inactive: -0.023,inactive: -0.036,inactive: -0.056,inactive: -0.071,inactive: -0.01,inactive: 0.087,inactive: 0.011,inactive: 0.061
RSL1D1 (UniProt O76021),inactive: -0.094,inactive: 0.543,inactive: 0.055,inactive: 0.363,inactive: -0.202,inactive: 0.181,inactive: -0.031,inactive: -0.065,inactive: 0.181,inactive: -0.013
SCCPDH (UniProt Q8NBX0),active: 0.436,inactive: 0.139,inactive: 0.349,inactive: 0.025,inactive: -0.058,inactive: -0.026,inactive: -0.016,inactive: 0.076,inactive: 0.015,inactive: 0.135

# 8 neighbouring entries already listed, quoted:
Target,log2 fold change [1],log2 fold change (filanesib),log2 fold change (zotarolimus),log2 fold change (idasanutlin),log2 fold change (alisertib),log2 fold change [2],log2 fold change (gefitinib),log2 fold change [3],log2 fold change (lapatinib),log2 fold change (pictilisib)
SAP18 isoform 2 (UniProt O00422),inactive: 0.084,inactive: 0.384,inactive: 0.009,inactive: 0.174,inactive: -0.07,inactive: 0.036,inactive: -0.034,inactive: 0,inactive: 0.07,inactive: 0
RTN3 isoform 5 (UniProt O95197),inactive: -0.105,inactive: -0.058,inactive: 0.103,inactive: -0.078,inactive: -0.118,inactive: -0.018,inactive: -0.074,inactive: 0.106,inactive: -0.1,
RSRC1 (UniProt Q96IZ7),inactive: 0.136,inactive: -0.003,inactive: 0.033,inactive: -0.004,inactive: -0.084,inactive: -0.024,inactive: 0.024,inactive: 0.001,inactive: 0.041,inactive: 0.101
RRP7A (UniProt Q9Y3A4),inactive: -0.076,inactive: 0.027,inactive: 0.13,inactive: 0.294,inactive: 0.07,inactive: 0.034,inactive: -0.063,inactive: -0.098,inactive: -0.021,
SCO1 (UniProt O75880),inactive: -0.009,inactive: 0.046,inactive: 0.013,inactive: 0.128,inactive: -0.003,inactive: 0.021,inactive: 0.032,inactive: 0.015,inactive: -0.011,inactive: 0.041
SCARB1 isoform 2 (UniProt Q8WTV0),inactive: 0.054,inactive: -0.099,inactive: -0.023,inactive: -0.036,inactive: -0.056,inactive: -0.071,inactive: -0.01,inactive: 0.087,inactive: 0.011,inactive: 0.061
RSL1D1 (UniProt O76021),inactive: -0.094,inactive: 0.543,inactive: 0.055,inactive: 0.363,inactive: -0.202,inactive: 0.181,inactive: -0.031,inactive: -0.065,inactive: 0.181,inactive: -0.013
SCCPDH (UniProt Q8NBX0),active: 0.436,inactive: 0.139,inactive: 0.349,inactive: 0.025,inactive: -0.058,inactive: -0.026,inactive: -0.016,inactive: 0.076,inactive: 0.015,inactive: 0.135
